Data as given in PubChem BioAssay AID504774 (Drosophila RNAi Screening Center, 2011).
The deposit covers about 23,000 reagents; below is an unselected part of those that have a named target and a result. 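Values are quantile-normalised luminescence on an arbitrary scale; higher means more cells surviving MMS.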 Reagents against one gene are numbered here. Names joined by + are all predicted targets of the reagent. Further read-outs or replicates are left out here.

Purpose: 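Genes required for cells to withstand methyl methanesulphonate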 (primary screen)
Cells: Drosophila Kc167 cells
Reagent: long dsRNA against Drosophila genes, about 0.25 µg dsRNA per well
Time to read-out: about 6 days: 3 days knock-down, then 3 days with or without MMS
Challenge: methyl methanesulphonate 0.004% (w/v) for 3 days after knock-down
Read-out: 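ATP-dependent luminescence as a measure of live cells in MMS-exposed wells, quantile normalised within each plate, with replicate values also given as a mean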
Reading the numbers: mean viability with MMS: higher = more surviving cells after MMS

no.	Gene	dsRNA no.	mean viability with MMS
1	NPFR	1	3.55e6
2	slam	1	3.42e6
3	CG13872	1	3.47e6
4	CG17377	1	3.47e6
5	CG17377	2	3.54e6
6	CG17377	3	3.46e6
7	hfw	1	3.43e6
8	Polr1D + DCTN6-p27	1	3.47e6
9	CG14400	1	3.53e6
10	mRpS17	1	3.69e6
11	Spn38F	1	3.60e6
12	mRpL18	1	3.54e6
13	gt	1	3.20e6
14	gt	2	3.56e6
15	CG11396	1	3.66e6
16	Dsk	1	3.59e6
17	CG11597	1	3.42e6
18	CG3408	1	3.63e6
19	CG5885	1	3.72e6
20	CG16837	1	3.56e6
21	CG14330	1	3.52e6
22	CG2246	1	3.52e6
23	CG42671	1	1.16e6
24	CG42671	2	3.70e6
25	CG3021	1	3.56e6
26	CG3021	2	3.65e6
27	CG18808	1	3.61e6
28	Glyp	1	1.58e6
29	Snx17	1	3.74e6
30	ksh	1	3.55e6
31	fs(1)K10	1	3.45e6
32	CG8578	1	3.47e6
33	hppy	1	3.52e6
34	hppy	2	3.55e6
35	hppy	3	3.53e6
36	CG42539 (retired record)	1	3.67e6
37	CG42539 (retired record)	2	3.59e6

7 consecutive records already listed, quoted:
no.	Gene	dsRNA no.	mean viability with MMS
17	CG11597	1	3.42e6
18	CG3408	1	3.63e6
19	CG5885	1	3.72e6
20	CG16837	1	3.56e6
21	CG14330	1	3.52e6
22	CG2246	1	3.52e6
23	CG42671	1	1.16e6

Additional reagents follow.
no.	Gene	dsRNA no.	mean viability with MMS
38	Hex-t1	1	3.26e6
39	shams	1	3.53e6
40	Fdx2	1	3.46e6
41	CG8046	1	3.48e6
42	CG5335	1	3.45e6
43	CG9702	1	3.67e6
44	Atg18a	1	3.53e6
45	CG1299	1	3.57e6
46	TfIIS	1	3.46e6
47	CG32081	1	3.66e6
48	CG30062	1	3.43e6
49	CG10089	1	3.37e6
50	CG10089	2	3.42e6
51	Cep164	1	3.65e6
52	CG12817 + CG12420	1	3.47e6
53	PIP4K	1	3.71e6
54	CG32163	1	3.51e6
55	Zwilch	1	3.41e6
56	CG3600 (retired record)	1	3.45e6
57	GV1	1	3.76e6
58	Orco	1	3.57e6
59	Optix	1	3.70e6
60	Optix	2	3.58e6
61	Optix	3	3.59e6
62	Ski6	1	3.54e6
63	Spn88Ea	1	3.62e6
64	cona	1	3.58e6
65	Cp7Fb	1	3.48e6
66	CG2182	1	3.68e6
67	UQCR-11L	1	3.50e6
68	CG13995	1	3.60e6
69	CG13995	2	3.56e6
70	CG13995	3	3.40e6
